Data from the supplement of paper PMC8728848.
This is one part of the list.

Columns and labels:
Assay in all cases: glycan array binding signal (z-score within array); higher = stronger binding
Settings in all cases: glycan notation: IUPAC condensed, linker removed
Glc(b1-6)Glc = biological target: Glc(b1-6)Glc
How it was run: (§1)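 The Consortium for Functional Glycomics database supplied 3228 glycan arrays, of which those lacking an available protein sequence were dropped. The binding signal, a within-array Z-score, was averaged across arrays of the same protein sequence and across linkers. Negative scores can be read as non-binding.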

GlcA(b1-3)Gal = biological target: GlcA(b1-3)Gal
How it was run: as §1

GlcA(b1-3)GlcNAc = biological target: GlcA(b1-3)GlcNAc
How it was run: as §1

GlcA(b1-6)Gal = biological target: GlcA(b1-6)Gal
How it was run: as §1

[1] = biological target: GlcA3S(b1-3)Gal(b1-4)GlcNAc(b1-2)Man
How it was run: as §1

[2] = biological target: GlcA3S(b1-3)Gal(b1-4)GlcNAc(b1-3)Gal(b1-4)Glc
How it was run: as §1

[3] = biological target: GlcNAc(a1-3)Gal(b1-4)GlcNAc
How it was run: as §1

[4] = biological target: GlcNAc(a1-4)Gal(b1-3)GlcNAc
How it was run: as §1

[5] = biological target: GlcNAc(a1-4)Gal(b1-4)GalNAc
How it was run: as §1

[6] = biological target: GlcNAc(a1-4)Gal(b1-4)GlcNAc
How it was run: as §1

[7] = biological target: GlcNAc(a1-4)Gal(b1-4)GlcNAc(b1-3)Gal(b1-4)Glc
How it was run: as §1

[8] = biological target: GlcNAc(a1-4)Gal(b1-4)GlcNAc(b1-3)Gal(b1-4)GlcNAc
How it was run: as §1

[9] = biological target: GlcNAc(a1-4)Gal(b1-4)GlcNAc(b1-3)Gal(b1-4)GlcNAc(b1-3)Gal(b1-4)GlcNAc
How it was run: as §1

[10] = biological target: GlcNAc(a1-4)Gal(b1-4)GlcNAc(b1-3)Gal(b1-4)[Fuc(a1-3)]GlcNAc(b1-3)Gal(b1-4)[Fuc(a1-3)]GlcNAc
How it was run: as §1

[11] = biological target: GlcNAc(a1-6)Gal(b1-4)GlcNAc
How it was run: as §1

[12] = biological target: GlcNAc(b1-2)Gal(b1-3)GalNAc
How it was run: as §1

[13] = biological target: GlcNAc(b1-2)Man(a1-3)[GlcNAc(b1-2)Man(a1-6)]Man(b1-4)GlcNAc(b1-4)GlcNAc
How it was run: as §1

[14] = biological target: GlcNAc(b1-2)Man(a1-3)[GlcNAc(b1-2)Man(a1-6)]Man(b1-4)GlcNAc(b1-4)[Fuc(a1-6)]GlcNAc
How it was run: as §1

[15] = biological target: GlcNAc(b1-2)Man(a1-3)[GlcNAc(b1-4)][GlcNAc(b1-2)Man(a1-6)]Man(b1-4)GlcNAc(b1-4)GlcNAc
How it was run: as §1

[16] = biological target: GlcNAc(b1-2)Man(a1-3)[GlcNAc(b1-4)][GlcNAc(b1-2)Man(a1-6)]Man(b1-4)GlcNAc(b1-4)[Fuc(a1-6)]GlcNAc
How it was run: as §1

[17] = biological target: GlcNAc(b1-2)[GlcNAc(b1-4)]Man(a1-3)[GlcNAc(b1-2)Man(a1-6)]Man(b1-4)GlcNAc(b1-4)GlcNAc
How it was run: as §1

[18] = biological target: GlcNAc(b1-2)[GlcNAc(b1-4)]Man(a1-3)[GlcNAc(b1-4)][GlcNAc(b1-2)Man(a1-6)]Man(b1-4)GlcNAc(b1-4)GlcNAc
How it was run: as §1

[19] = biological target: GlcNAc(b1-2)[GlcNAc(b1-4)]Man(a1-3)[GlcNAc(b1-4)][GlcNAc(b1-2)[GlcNAc(b1-6)]Man(a1-6)]Man(b1-4)GlcNAc(b1-4)GlcNAc
How it was run: as §1

[20] = biological target: GlcNAc(b1-2)[GlcNAc(b1-4)]Man(a1-3)[GlcNAc(b1-4)][GlcNAc(b1-2)[GlcNAc(b1-6)]Man(a1-6)]Man(b1-4)GlcNAc(b1-4)[Fuc(a1-6)]GlcNAc
How it was run: as §1

[21] = biological target: GlcNAc(b1-2)[GlcNAc(b1-6)]Man(a1-6)[GlcNAc(b1-2)Man(a1-3)]Man(b1-4)GlcNAc(b1-4)GlcNAc
How it was run: as §1

[22] = biological target: GlcNAc(b1-2)[GlcNAc(b1-6)]Man(a1-6)[GlcNAc(b1-2)Man(a1-3)]Man(b1-4)GlcNAc(b1-4)[Fuc(a1-6)]GlcNAc
How it was run: as §1

[23] = biological target: GlcNAc(b1-2)[GlcNAc(b1-6)]Man(a1-6)[GlcNAc(b1-4)][GlcNAc(b1-2)Man(a1-3)]Man(b1-4)GlcNAc(b1-4)GlcNAc
How it was run: as §1

GlcNAc(b1-3)Fuc = biological target: GlcNAc(b1-3)Fuc
How it was run: as §1

GlcNAc(b1-3)Gal = biological target: GlcNAc(b1-3)Gal
How it was run: as §1

[24] = biological target: GlcNAc(b1-3)Gal(b1-3)GalNAc
How it was run: as §1

GlcNAc(b1-3)Gal(b1-4)Glc = biological target: GlcNAc(b1-3)Gal(b1-4)Glc
How it was run: as §1

[25] = biological target: GlcNAc(b1-3)Gal(b1-4)GlcNAc
How it was run: as §1

[26] = biological target: GlcNAc(b1-3)Gal(b1-4)GlcNAc(b1-2)Man(a1-3)[GlcNAc(b1-3)Gal(b1-4)GlcNAc(b1-2)Man(a1-6)]Man(b1-4)GlcNAc(b1-4)GlcNAc
How it was run: as §1

[27] = biological target: GlcNAc(b1-3)Gal(b1-4)GlcNAc(b1-2)Man(a1-3)[GlcNAc(b1-3)Gal(b1-4)GlcNAc(b1-2)Man(a1-6)]Man(b1-4)GlcNAc(b1-4)[Fuc(a1-6)]GlcNAc
How it was run: as §1

[28] = biological target: GlcNAc(b1-3)Gal(b1-4)GlcNAc(b1-2)[GlcNAc(b1-3)Gal(b1-4)GlcNAc(b1-6)]Man(a1-6)[GlcNAc(b1-3)Gal(b1-4)GlcNAc(b1-2)Man(a1-3)]Man(b1-4)GlcNAc(b1-4)GlcNAc
How it was run: as §1

[29] = biological target: GlcNAc(b1-3)Gal(b1-4)GlcNAc(b1-3)Gal(b1-4)GlcNAc
How it was run: as §1

[30] = biological target: GlcNAc(b1-3)Gal(b1-4)GlcNAc(b1-3)Gal(b1-4)GlcNAc(b1-2)Man(a1-3)[GlcNAc(b1-3)Gal(b1-4)GlcNAc(b1-3)Gal(b1-4)GlcNAc(b1-2)Man(a1-6)]Man(b1-4)GlcNAc(b1-4)GlcNAc
How it was run: as §1

[31] = biological target: GlcNAc(b1-3)Gal(b1-4)GlcNAc(b1-3)Gal(b1-4)GlcNAc(b1-2)Man(a1-3)[GlcNAc(b1-3)Gal(b1-4)GlcNAc(b1-3)Gal(b1-4)GlcNAc(b1-2)Man(a1-6)]Man(b1-4)GlcNAc(b1-4)[Fuc(a1-6)]GlcNAc
How it was run: as §1

[32] = biological target: GlcNAc(b1-3)Gal(b1-4)GlcNAc(b1-3)Gal(b1-4)GlcNAc(b1-2)[GlcNAc(b1-3)Gal(b1-4)GlcNAc(b1-3)Gal(b1-4)GlcNAc(b1-6)]Man(a1-6)[GlcNAc(b1-3)Gal(b1-4)GlcNAc(b1-3)Gal(b1-4)GlcNAc(b1-2)Man(a1-3)]Man(b1-4)GlcNAc(b1-4)[Fuc(a1-6)]GlcNAc
How it was run: as §1

[33] = biological target: GlcNAc(b1-3)Gal(b1-4)GlcNAc(b1-3)Gal(b1-4)GlcNAc(b1-3)Gal(b1-4)GlcNAc(b1-2)Man(a1-3)[GlcNAc(b1-3)Gal(b1-4)GlcNAc(b1-3)Gal(b1-4)GlcNAc(b1-3)Gal(b1-4)GlcNAc(b1-2)Man(a1-6)]Man(b1-4)GlcNAc(b1-4)GlcNAc
How it was run: as §1

[34] = biological target: GlcNAc(b1-3)Gal(b1-4)GlcNAc(b1-3)Gal(b1-4)GlcNAc(b1-3)Gal(b1-4)GlcNAc(b1-2)Man(a1-3)[GlcNAc(b1-3)Gal(b1-4)GlcNAc(b1-3)Gal(b1-4)GlcNAc(b1-3)Gal(b1-4)GlcNAc(b1-2)Man(a1-6)]Man(b1-4)GlcNAc(b1-4)[Fuc(a1-6)]GlcNAc
How it was run: as §1

[35] = biological target: GlcNAc(b1-3)Gal(b1-4)GlcNAc(b1-3)Gal(b1-4)GlcNAc(b1-3)Gal(b1-4)GlcNAc(b1-2)[GlcNAc(b1-3)Gal(b1-4)GlcNAc(b1-3)Gal(b1-4)GlcNAc(b1-3)Gal(b1-4)GlcNAc(b1-6)]Man(a1-6)[GlcNAc(b1-3)Gal(b1-4)GlcNAc(b1-3)Gal(b1-4)GlcNAc(b1-3)Gal(b1-4)GlcNAc(b1-2)Man(a1-3)]Man(b1-4)GlcNAc(b1-4)[Fuc(a1-6)]GlcNAc
How it was run: as §1

[36] = biological target: GlcNAc(b1-3)Gal(b1-4)GlcNAc(b1-3)Gal(b1-4)GlcNAc(b1-3)Gal(b1-4)GlcNAc(b1-3)Gal(b1-4)GlcNAc(b1-2)Man(a1-3)[GlcNAc(b1-3)Gal(b1-4)GlcNAc(b1-3)Gal(b1-4)GlcNAc(b1-3)Gal(b1-4)GlcNAc(b1-3)Gal(b1-4)GlcNAc(b1-2)Man(a1-6)]Man(b1-4)GlcNAc(b1-4)GlcNAc
How it was run: as §1

[37] = biological target: GlcNAc(b1-3)Gal(b1-4)GlcNAc(b1-3)Gal(b1-4)GlcNAc(b1-3)Gal(b1-4)GlcNAc(b1-3)Gal(b1-4)GlcNAc(b1-2)Man(a1-3)[GlcNAc(b1-3)Gal(b1-4)GlcNAc(b1-3)Gal(b1-4)GlcNAc(b1-3)Gal(b1-4)GlcNAc(b1-3)Gal(b1-4)GlcNAc(b1-2)Man(a1-6)]Man(b1-4)GlcNAc(b1-4)[Fuc(a1-6)]GlcNAc
How it was run: as §1

[38] = biological target: GlcNAc(b1-3)Gal(b1-4)GlcNAc(b1-3)Gal(b1-4)GlcNAc(b1-3)Gal(b1-4)GlcNAc(b1-3)Gal(b1-4)GlcNAc(b1-2)[GlcNAc(b1-3)Gal(b1-4)GlcNAc(b1-3)Gal(b1-4)GlcNAc(b1-3)Gal(b1-4)GlcNAc(b1-3)Gal(b1-4)GlcNAc(b1-6)]Man(a1-6)[GlcNAc(b1-3)Gal(b1-4)GlcNAc(b1-3)Gal(b1-4)GlcNAc(b1-3)Gal(b1-4)GlcNAc(b1-3)Gal(b1-4)GlcNAc(b1-2)Man(a1-3)]Man(b1-4)GlcNAc(b1-4)[Fuc(a1-6)]GlcNAc
How it was run: as §1

B1: Mermaid1 (Stilbonema majum) (protein)
chain: MGSSHHHHHHSSGLVPRGSHMAASGWLRSPQGTVVKLYRRSLSWSKADEFCKDVDGRLVVDRTADMHLFLIKNVLKEKKSRVWVGLRRTAPHSRTWIWSDGTRQNEDDLDANLWLRDEPNDAAGEEECALFMYSPWEKAWGLNDYLCRGGCRSYQFICEKWIR
- glycan array binding signal (z-score) (Glc(b1-6)Glc): -0.151
- glycan array binding signal (z-score) (GlcA(b1-3)Gal): -0.437
- glycan array binding signal (z-score) (GlcA(b1-3)GlcNAc): -0.379
- glycan array binding signal (z-score) (GlcA(b1-6)Gal): 1.57
- glycan array binding signal (z-score) [1]: 0.412
- glycan array binding signal (z-score) [2]: -0.35
- glycan array binding signal (z-score) [3]: -0.463
- glycan array binding signal (z-score) [4]: -0.025
- glycan array binding signal (z-score) [5]: 0.202
- glycan array binding signal (z-score) [6]: -0.605
- glycan array binding signal (z-score) [7]: -0.738
- glycan array binding signal (z-score) [8]: -0.092
- glycan array binding signal (z-score) [9]: -0.79
- glycan array binding signal (z-score) [10]: -0.193
- glycan array binding signal (z-score) [11]: -0.451
- glycan array binding signal (z-score) [12]: -0.353
- glycan array binding signal (z-score) [13]: -0.645
- glycan array binding signal (z-score) [14]: 0.566
- glycan array binding signal (z-score) [15]: -0.618
- glycan array binding signal (z-score) [16]: 0.314
- glycan array binding signal (z-score) [17]: -0.141
- glycan array binding signal (z-score) [18]: -0.515
- glycan array binding signal (z-score) [19]: -0.221
- glycan array binding signal (z-score) [20]: -0.663
- glycan array binding signal (z-score) [21]: 0.076
- glycan array binding signal (z-score) [22]: -0.878
- glycan array binding signal (z-score) [23]: -0.438
- glycan array binding signal (z-score) (GlcNAc(b1-3)Fuc): -0.068
- glycan array binding signal (z-score) (GlcNAc(b1-3)Gal): 1.31
- glycan array binding signal (z-score) [24]: -0.864
- glycan array binding signal (z-score) (GlcNAc(b1-3)Gal(b1-4)Glc): 0.313
- glycan array binding signal (z-score) [25]: -0.029
- glycan array binding signal (z-score) [26]: 0.436
- glycan array binding signal (z-score) [27]: 0.788
- glycan array binding signal (z-score) [28]: 0.126
- glycan array binding signal (z-score) [29]: -0.162
- glycan array binding signal (z-score) [30]: 0.108
- glycan array binding signal (z-score) [31]: 1.05
- glycan array binding signal (z-score) [32]: 0.936
- glycan array binding signal (z-score) [33]: 0.578
- glycan array binding signal (z-score) [34]: 0.762
- glycan array binding signal (z-score) [35]: 0.942
- glycan array binding signal (z-score) [36]: 0.156
- glycan array binding signal (z-score) [37]: -0.271
- glycan array binding signal (z-score) [38]: 1.27
